# The shares of active, inactive and inconclusive entries below differ from those in the screen. Where the call is inconclusive, the potency comes from a doubtful curve fit. Activity calls are given as the source filed them. Calls follow the shape of the dose curve; as a rule, active = well fitted cell-killing curve with a large enough effect; inconclusive = small, poorly fitted or top-dose-only effect, or effect the other way; inactive = no such curve, though single readings can be large or run the other way.
# How the values were obtained:
# [1] = Quantitative High-Throughput drug screen in 47 multiple myeloma cell lines against the NCATS MIPE library collection: FR4_PLB cell viability assay (AID 1918924; also: nearly all actives have a fitted effect of over 35% in size); conditions: FR4_PLB myeloma cells viability, CellTiter-Glo ATP, 48 h; viability (% of DMSO control): at 45.8 µM (top of the series)
# In short: (§1)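 Primary qHTS used for cherry-picking: cells at 500/well, library compounds for 48 h (37C, 5% CO2), luminescent ATP assay.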
# [2] = Quantitative High-Throughput drug screen in 47 multiple myeloma cell lines against the NCATS MIPE library collection: EJM_DSMZ cell viability assay (AID 1918926; also: nearly all actives have a fitted effect of over 30% in size); conditions: EJM myeloma cell viability, CellTiter-Glo ATP, 48 h; viability, % of control: at 45.8 µM (top of the series)
# In short: as §1
# [3] = Quantitative High-Throughput drug screen in 47 multiple myeloma cell lines against the NCATS MIPE library collection: AMO1_DSMZ cell viability assay (AID 1918927; also: nearly all actives have a fitted effect of over 30% in size); conditions: AMO1 myeloma cells viability, CellTiter-Glo ATP luminescence, 48 h; series mostly up to 45.8 µM
# In short: as §1
# [4] = Quantitative High-Throughput drug screen in 47 multiple myeloma cell lines against the NCATS MIPE library collection: ARD_JJKsccE7 cell viability assay (AID 1918929); conditions: ARD myeloma cell line viability, CellTiter-Glo, 48 h; series mostly up to 45.8 µM
# In short: as §1
# [5] = Quantitative High-Throughput drug screen in 47 multiple myeloma cell lines against the NCATS MIPE library collection: Karpas620_DSMZ cell viability assay (AID 1918959); conditions: Karpas620 myeloma viability, CellTiter-Glo ATP luminescence, 48 h; series mostly up to 45.8 µM; also: nearly all actives have a fitted effect of over 30% in size
# In short: as §1
# [6] = Quantitative High-Throughput drug screen in 47 multiple myeloma cell lines against the NCATS MIPE library collection: KMM1_JCRB cell viability assay (AID 1918960); conditions: KMM1 myeloma viability, CellTiter-Glo ATP luminescence, 48 h; viability (% of DMSO): at 45.8 µM (top of the series); also: nearly all actives have a fitted effect of over 30% in size
# In short: (§2)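 Myeloma cells at 500 per well in 1536-well format treated with MIPE 4.0 library by pin transfer for 48 h at 37C, 5% CO2. Viability from ATP luminescence (CellTiter-Glo), normalized to DMSO (100%) and media-only (0%) wells.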
# [7] = Quantitative High-Throughput drug screen in 47 multiple myeloma cell lines against the NCATS MIPE library collection: Karpas417_ECACC cell viability assay (AID 1918961); conditions: Karpas417 myeloma viability, CellTiter-Glo ATP luminescence, 48 h; viability (% of DMSO): at 45.8 µM (top of the series) unless noted
# In short: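 We plated 500 myeloma cells per well, pinned in MIPE 4.0 compounds, and incubated for 48 hours at 37C. ATP was then quantified with CellTiter-Glo, with DMSO and media-only wells defining 100% and 0%.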
# [8] = Quantitative High-Throughput drug screen in 47 multiple myeloma cell lines against the NCATS MIPE library collection: KHM11_PLB cell viability assay (AID 1918962); conditions: KHM11 myeloma cell viability, CellTiter-Glo ATP luminescence, 48 h; viability, % of DMSO control: at 45.8 µM (top of the series); also: nearly all actives have a fitted effect of over 35% in size
# In short: as §1
# [9] = Quantitative High-Throughput drug screen in 47 multiple myeloma cell lines against the NCATS MIPE library collection: Delta47_JCRB cell viability assay (AID 1918925; also: nearly all actives have a fitted effect of over 45% in size); conditions: Delta47 myeloma viability, CellTiter-Glo ATP, 48 h; viability (% of DMSO): at 45.8 µM (top of the series) unless noted
# In short: as §1
# [10] = Quantitative High-Throughput drug screen in 47 multiple myeloma cell lines against the NCATS MIPE library collection: ARP1_JJKsccF8 cell viability assay (AID 1918928; also: nearly all actives have a fitted effect of over 40% in size); conditions: ARP1 myeloma cells viability, CellTiter-Glo ATP, 48 h; viability: at 45.8 µM (top of the series)
# In short: as §2
# Potency is read from the fitted curve at half-maximal effect.
compound,measurement,setting,value
C[C@@H](NCCCc1cccc(C(F)(F)F)c1)c1cccc2ccccc12,Potency,[1],inactive
same,Potency,[2],inactive
same,Potency,[3],"inconclusive: 11.8 µM [cytotoxic, single point]"
same,Potency,[4],"inconclusive: 37.2 µM [cytotoxic, single point]"
same,Potency,[5],"inconclusive: 7.43 µM [cytotoxic, partial curve, poor fit]"
same,Potency,[6],inactive
same,Potency,[7],"inconclusive: 0.0235 µM [cytotoxic, full curve, poor fit]"
same,Potency,[8],inactive
COc1ccc(C(=O)CC(=O)c2ccc(C(C)(C)C)cc2)cc1,Potency,[1],"inconclusive: 5.9 µM [cytotoxic, partial curve, poor fit]"
same,Potency,[9],"inconclusive: 1.32 µM [cytotoxic, full curve, poor fit]"
same,Potency,[10],active: 10.5 µM
same,Potency,[8],"inconclusive: 8.33 µM [cytotoxic, single point]"
CC(=O)O[C@]1(C(C)=O)CC[C@@H]2[C@@H]3C[C@H](C)C4=CC(=O)CC[C@]4(C)[C@H]3CC[C@@]21C,Potency,[1],"inconclusive: 37.2 µM [cytotoxic, single point]"
same,Potency,[3],"inconclusive: 5.9 µM [cytotoxic, partial curve, poor fit]"
same,Potency,[10],active: 26.4 µM
same,Potency,[4],"inconclusive: 0.148 µM [cytotoxic, full curve, poor fit]"
same,Potency,[7],"inconclusive: 23.5 µM [cytotoxic, partial curve, poor fit]"
same,Potency,[8],inactive
COc1cc([C@H]2Oc3cc([C@H]4Oc5cc(O)cc(O)c5C(=O)[C@H]4O)ccc3O[C@H]2CO)ccc1O,Potency,[1],active: 18.7 µM
same,Potency,[3],"inconclusive: 0.0026 µM [cytotoxic, full curve, poor fit]"
same,Potency,[4],inactive
same,Potency,[5],inactive
same,Potency,[7],"inconclusive: 13.2 µM [rising, partial curve, poor fit]"
CC1(C)C(=O)N(CCN2CCC(C(=O)c3ccc(F)cc3)CC2)c2ccccc21,Potency,[1],inactive
same,Potency,[2],inactive
same,Potency,[7],"inconclusive: 2.96 µM [cytotoxic, full curve, poor fit]"
O=c1[nH]c(=O)n([C@H]2C[C@@H](O)[C@@H](CO)O2)cc1C=CBr,Potency,[1],"inconclusive: 9.35 µM [rising, single point]"
same,Potency,[3],inactive
same,Potency,[10],inactive
same,Potency,[4],"inconclusive: 0.0012 µM [cytotoxic, full curve, poor fit]"
same,Potency,[6],inactive
same,viability (% of DMSO),[7],active: 90.1%
same,Potency,[8],"inconclusive: 0.059 µM [rising, full curve]"
CNC1CCC(N(Cc2cccc(-c3ccncc3)c2)C(=O)c2sc3c(F)ccc(F)c3c2Cl)CC1 (centres undefined),Potency,[1],active: 14.8 µM
same,Potency,[2],"inconclusive: 16.6 µM [cytotoxic, partial curve, poor fit]"
same,Potency,[4],active: 29.6 µM
same,Potency,[7],"inconclusive: 23.5 µM [cytotoxic, partial curve, poor fit]"
O=c1[nH]c(=O)n([C@H]2C[C@@H](O)[C@@H](CO)O2)cc1F,Potency,[1],active: 13.2 µM
same,Potency,[2],"inconclusive: 26.4 µM [cytotoxic, single point]"
same,Potency,[5],"inconclusive: 18.7 µM [cytotoxic, partial curve]"
same,Potency,[7],"inconclusive: 29.6 µM [cytotoxic, single point]"
NC(=O)c1cccc(-c2cc(Nc3ccc(OC(F)(F)F)cc3)ncn2)c1,Potency,[1],"inconclusive: 37.2 µM [cytotoxic, single point]"
same,Potency,[2],"inconclusive: 18.7 µM [cytotoxic, partial curve, poor fit]"
same,Potency,[10],"inconclusive: 26.4 µM [cytotoxic, partial curve]"
same,Potency,[7],"inconclusive: 37.2 µM [cytotoxic, partial curve, poor fit]"
COCCOc1nc(-c2ccc(Cl)c(Cl)c2)n(-c2ccc(NC(=O)CCl)cc2)n1,Potency,[1],"inconclusive: 33.2 µM [cytotoxic, single point]"
same,Potency,[2],"inconclusive: 14.8 µM [cytotoxic, partial curve, poor fit]"
same,Potency,[6],active: 14.8 µM
same,Potency,[7],active: 16.6 µM
Cc1cc(=O)c2c(O)c3c(O)cc(=O)c4c3c3c(cc(O)c1c23)C(C)(C)C=4O,Potency,[1],active: 13.2 µM
same,Potency,[2],active: 14.8 µM
same,Potency,[6],"inconclusive: 0.469 µM [cytotoxic, full curve]"
same,Potency,[7],"inconclusive: 8.33 µM [cytotoxic, partial curve, poor fit]"
CCCCOc1ccc(C(=O)Nc2ccc(F)cc2F)cc1,Potency,[1],"inconclusive: 0.0264 µM [rising, full curve, poor fit]"
same,Potency,[3],"inconclusive: 0.0021 µM [rising, full curve, poor fit]"
same,Potency,[10],inactive
same,Potency,[8],"inconclusive: 23.5 µM [rising, partial curve, poor fit]"
CC[C@H](CO)Nc1nc(NCc2ccccc2)c2ncn(C(C)C)c2n1,Potency,[1],"inconclusive: 33.2 µM [cytotoxic, single point]"
same,Potency,[3],active: 9.35 µM
same,Potency,[10],"inconclusive: 33.2 µM [cytotoxic, single point]"
same,Potency,[4],"inconclusive: 11.8 µM [cytotoxic, single point]"
same,Potency,[6],"inconclusive: 9.35 µM [cytotoxic, single point]"
same,Potency,[7],"inconclusive: 11.8 µM [cytotoxic, partial curve, poor fit]"
same,Potency,[8],active: 18.7 µM
O=C(O)C=Cc1ccc(Cn2ccnc2)cc1,Potency,[1],inactive
same,Potency,[3],active: 0.372 µM
same,Potency,[10],"inconclusive: 0.105 µM [rising, full curve, poor fit]"
same,Potency,[4],inactive
same,Potency,[6],inactive
same,Potency,[7],"inconclusive: 37.2 µM [rising, single point]"
same,Potency,[8],inactive
C[C@]12CC[C@@H]3c4ccc(O)cc4CC[C@H]3[C@H]1C[C@@H](O)[C@H]2O,Potency,[1],inactive
same,Potency,[2],"inconclusive: 20.9 µM [cytotoxic, single point]"
same,Potency,[4],inactive
same,Potency,[6],"inconclusive: 33.2 µM [cytotoxic, single point]"
same,Potency,[7],inactive
same,Potency,[8],"inconclusive: 5.9 µM [cytotoxic, full curve, poor fit]"
OC(c1cc(C(F)(F)F)nc2c(C(F)(F)F)cccc12)C1CCCCN1 (centres undefined),Potency,[1],"inconclusive: 33.2 µM [cytotoxic, single point]"
same,Potency,[3],active: 18.7 µM
same,Potency,[4],"inconclusive: 33.2 µM [cytotoxic, single point]"
same,Potency,[6],active: 20.9 µM
same,Potency,[7],"inconclusive: 16.6 µM [cytotoxic, partial curve, poor fit]"
same,Potency,[8],"inconclusive: 37.2 µM [cytotoxic, single point]"
CC1(C)O[C@@H]2C[C@H]3[C@@H]4CCC5=CC(=O)C=C[C@]5(C)[C@@H]4[C@@H](O)C[C@]3(C)[C@]2(C(=O)CO)O1,Potency,[1],inactive
same,Potency,[3],"inconclusive: 20.9 µM [cytotoxic, partial curve, poor fit]"
same,Potency,[5],"inconclusive: 18.7 µM [cytotoxic, single point]"
same,Potency,[6],"inconclusive: 4.69 µM [cytotoxic, partial curve]"
same,Potency,[7],"inconclusive: 2.64 µM [cytotoxic, partial curve, poor fit]"
same,Potency,[8],"inconclusive: 6.62 µM [cytotoxic, full curve, poor fit]"

# Part of the list above, bar-delimited:
compound | measurement | setting | value
CC(=O)O[C@]1(C(C)=O)CC[C@@H]2[C@@H]3C[C@H](C)C4=CC(=O)CC[C@]4(C)[C@H]3CC[C@@]21C | Potency | [3] | inconclusive: 5.9 µM [cytotoxic, partial curve, poor fit]
same | Potency | [10] | active: 26.4 µM
same | Potency | [4] | inconclusive: 0.148 µM [cytotoxic, full curve, poor fit]
same | Potency | [7] | inconclusive: 23.5 µM [cytotoxic, partial curve, poor fit]
same | Potency | [8] | inactive

# Reference: PubChem BioAssay (NCATS)
